Results are given in words; binding and its absence hold for the method and conditions named. Binding seen in cells or lysates may run through a third protein. Some entries that bind do so weakly or less than the wild type.
Target: Aryl hydrocarbon receptor (human (endogenous in A549)) (UniProt P35869)
Assay: co-IP; endogenous proteins in A549 lysate (1 mg total protein) incubated with anti-AHR, anti-PLK1 or IgG control antibodies overnight; Protein A/G magnetic beads at room temperature 30 min; washed three times with 1x TBST; immunoblot; 10% lysate as input

Sequences of proteins named here, by UniProt entry; tags and fusion partners are left off. Residues count along the entry.
UniProt P35869, residues 11-848: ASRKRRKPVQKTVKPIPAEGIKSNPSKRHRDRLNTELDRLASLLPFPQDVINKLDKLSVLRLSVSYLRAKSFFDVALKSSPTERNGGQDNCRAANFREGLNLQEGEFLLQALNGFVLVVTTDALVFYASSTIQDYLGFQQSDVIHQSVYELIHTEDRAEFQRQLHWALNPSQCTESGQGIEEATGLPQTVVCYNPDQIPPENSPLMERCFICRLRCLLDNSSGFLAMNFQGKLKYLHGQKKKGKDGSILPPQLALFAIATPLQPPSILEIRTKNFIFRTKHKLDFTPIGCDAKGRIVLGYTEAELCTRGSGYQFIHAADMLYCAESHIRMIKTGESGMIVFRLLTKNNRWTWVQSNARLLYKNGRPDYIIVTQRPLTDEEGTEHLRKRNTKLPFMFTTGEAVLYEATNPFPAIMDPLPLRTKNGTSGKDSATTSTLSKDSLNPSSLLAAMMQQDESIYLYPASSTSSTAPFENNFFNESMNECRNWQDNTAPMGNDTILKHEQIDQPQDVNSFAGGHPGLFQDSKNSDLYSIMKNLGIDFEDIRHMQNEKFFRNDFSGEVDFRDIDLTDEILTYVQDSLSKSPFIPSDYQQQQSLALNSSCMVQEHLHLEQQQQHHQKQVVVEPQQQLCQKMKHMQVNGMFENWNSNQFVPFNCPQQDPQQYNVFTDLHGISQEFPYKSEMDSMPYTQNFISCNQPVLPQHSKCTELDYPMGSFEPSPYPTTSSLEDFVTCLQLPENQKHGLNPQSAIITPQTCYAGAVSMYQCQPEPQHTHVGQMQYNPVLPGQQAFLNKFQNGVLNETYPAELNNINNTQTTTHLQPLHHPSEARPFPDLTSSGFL
UniProt P53350: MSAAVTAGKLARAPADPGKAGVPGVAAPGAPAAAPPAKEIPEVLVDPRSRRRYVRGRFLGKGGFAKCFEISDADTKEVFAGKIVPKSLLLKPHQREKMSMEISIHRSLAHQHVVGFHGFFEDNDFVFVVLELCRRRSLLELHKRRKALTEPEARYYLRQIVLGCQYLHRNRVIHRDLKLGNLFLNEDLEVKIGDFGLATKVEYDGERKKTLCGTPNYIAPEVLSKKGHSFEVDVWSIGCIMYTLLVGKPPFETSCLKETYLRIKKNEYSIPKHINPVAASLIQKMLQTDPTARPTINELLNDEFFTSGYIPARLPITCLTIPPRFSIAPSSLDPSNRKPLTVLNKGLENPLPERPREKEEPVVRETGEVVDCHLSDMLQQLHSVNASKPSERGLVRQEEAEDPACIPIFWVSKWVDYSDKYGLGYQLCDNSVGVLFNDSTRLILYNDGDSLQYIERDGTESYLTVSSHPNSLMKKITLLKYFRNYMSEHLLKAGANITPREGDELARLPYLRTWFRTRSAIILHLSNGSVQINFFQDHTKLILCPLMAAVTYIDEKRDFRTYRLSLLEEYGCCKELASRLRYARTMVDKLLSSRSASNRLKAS

In the case of “Polo-like kinase 1 (from UniProt P53350 1-603) (enzyme)”, the binding is reported as “binds”.
